At least one read-out could not be matched to a standard name with certainty. Some entries repeat one wording, which the source may state once for all of them.
These compounds were tested on MDA-MB468, HCT116 and A549 cells (assay: Combination experiments with chemotherapeutic anti-cancer agents). Conditions: example at about its IC50 with Taxol, Docetaxel, 5-FU, Gemcitabine, Irinotecan, Doxorubicin, Mafosfamide, Carboplatin, Cisplatin; 4 h pretreatment, 72 h total.
Type: cell-based

Row | Compound | Effect of combination on IC50 of the chemotherapeutic agent
1 | O=C(/C=C/c1ccn(S(=O)(=O)c2ccc(-c3ccccc3)cc2)c1)NO [Compound 3, (E)-3-[1-(Biphenyl-4-sulfonyl)-1H-pyrrol-3-yl]-N-hydroxy-acrylamide] | additive effects
2 | O=C(/C=C/c1ccn(S(=O)(=O)c2ccc(-c3ccccn3)s2)c1)NO [Compound 24, (E)-N-Hydroxy-3-[1-(5-pyridin-2-yl-thiophene-2-sulfonyl)-1H-pyrrol-3-yl]-acrylamide] | additive effects
3 | CN(CCc1cc2ccccc2[nH]1)Cc1ccc(S(=O)(=O)n2ccc(/C=C/C(=O)NO)c2)cc1 [Compound 9, (E)-N-Hydroxy-3-(1-[4-(([2-(1H-indol-2-yl)-ethyl]-methyl-amino)-methyl)-benzenesulfonyl]-1H-pyrrol-3-yl)-acrylamide] | additive effects

Source: patent publication US8232297B2, “Sulphonylpyrroles as inhibitors of HDACs novel sulphonylpyrroles” (4SC AG, priority 2005, dated 2012)
